# The amount applied is not stated for every result.
# System: erythrocytes
# Test: Permeabilization of erythrocytes (osmolytes of varying molecular weight)
# Type: cell-based
# Conditions: 15 min incubation, FIG. 10
smiles,measurement,value
CCCCCCCCCCCCC/C=C/[C@@H](O)[C@@H](N)CO [sphingosine],molecular weight cut off of channels in erythrocytes,1 kDa

# Reference: patent US7897401B2, “Control of apoptosis by controlling the propensity of ceramide channel formation” (University of Maryland, College Park, priority 2005, dated 2011)
